Laboratory results from PubChem BioAssay AID540256 (National Center for Advancing Translational Sciences (NCATS), 2011).
“And” between values parts separate entries of the source, which are not always exact repeats. Equal entries are not always repeated. The whole screen tested about 300,000 compounds, of which about 3,700 (1.2%) were called active. Inconclusive means that the source gave no clear call. Such entries were picked first, then a sample of the others. The call rests on the fitted dose curve; tested in HEK293 cells. Potencies beside an inconclusive call are fits to weak or partial responses and may not hold up.

Assay: qHTS for Inhibitors of binding or entry into cells for Lassa Virus; further: nearly all actives have a fitted effect of over 50% in size
Conditions: Lassa virus pseudotype entry inhibition, cell reporter; series mostly up to 37.9 µM
Potency means the concentration at half of the fitted maximal effect.

Row | SMILES | Potency
1 | CCn1c(=O)c(C(=O)NNC(=O)c2ccccc2Cl)c(O)c2ccccc21 | inconclusive: 12.6 µM [inhibitor, partial curve, poor fit]
2 | CC(=O)NS(=O)(=O)c1ccc(NC(=O)C(Sc2ccccc2)c2ccccc2)cc1 (centres undefined) | inactive
3 | CCC(C)(C)NC(=O)C(c1cccc(OC)c1OC)N(Cc1ccc(OC)cc1)C(=O)CCC(=O)Nc1cc(C)on1 (centres undefined) | inactive
4 | COc1cc(C2CC(=O)Nc3cc4c(cc32)OCCO4)cc(Br)c1OC (centres undefined) | inconclusive: 4.47 µM [inhibitor, full curve, poor fit]
5 | CCOC(=O)C1CCN(C(=O)CN(c2ccc3c(c2)OCCO3)S(=O)(=O)c2ccccc2)CC1 | inconclusive: 0.891 µM [inhibitor, full curve, poor fit]
6 | Cc1cccc(N2CCN(C(=O)CCCCn3c(=O)[nH]c4ccsc4c3=O)CC2)c1C | inconclusive: 10 µM [inhibitor, partial curve, poor fit]
7 | COc1ccc(Cn2c(=O)c3oc4ccccc4c3n(Cc3ccc(F)cc3)c2=O)cc1 | inactive
8 | COc1cccc(C2=NOC(C(=O)NCCN3CCOCC3)C2)c1 (centres undefined) | inactive
9 | CC(C)Oc1ccc(CNC(=S)N/N=C/c2ccc([N+](=O)[O-])cc2)cc1 | inconclusive: 0.251 µM [inhibitor, full curve, poor fit]
10 | CCN(CC)S(=O)(=O)c1ccc2oc(C(=O)N(C)Cc3ccccc3)c(C)c2c1 | inconclusive: 7.08 µM [inhibitor, partial curve, poor fit]
11 | CCCCOc1cccc(C(=O)N(Cc2sccc2C)C2CCS(=O)(=O)C2)c1 (centres undefined) | inconclusive: 35.5 µM [inhibitor, single point]
12 | Cc1csc(NC(=O)CSc2nc(C)cs2)n1 | inactive
13 | COc1ccc(C2CC(c3ccccc3)=NN2S(=O)(=O)c2ccc(C)cc2)c(OC)c1 (centres undefined) | inconclusive: 11.6 µM [inhibitor, partial curve]
14 | CCCCn1c(-c2ccc(OC(F)F)cc2)nc2c1c(=O)[nH]c(=O)n2CC(C)C | inconclusive: 0.891 µM [inhibitor, full curve, poor fit]
15 | CCCc1cc(C(N)=O)c(NC(=O)c2cc(C)on2)s1 | inactive
16 | O=[N+]([O-])c1cccc(/C=N/NS(=O)(=O)c2ccccc2)c1 | inconclusive: 11.2 µM [inhibitor, partial curve, poor fit]
17 | COc1cc2c(cc1NC(=O)C1CCCO1)oc1ccccc12 (centres undefined) | inactive
18 | Cc1ccccc1C(=O)NC(=S)Nc1ccc(S(=O)(=O)N(C)c2ccccc2)cc1 | inconclusive: 10 µM [inhibitor, partial curve]
19 | Cc1ccc2cc(CN(C(=O)c3ccncc3)C(C)C)c(=O)[nH]c2c1 | inactive
20 | CCOc1ccccc1N=C1SC(CC(=O)Nc2ccc(OC)cc2OC)C(=O)N1CCC1=CCCCC1 (centres undefined) | inconclusive: 35.5 µM [inhibitor, single point]
21 | Cc1c2cnn(CC(=O)NCCc3ccccc3)c(=O)c2c(C)n1Cc1ccccc1 | inconclusive: 3.16 µM [inhibitor, single point]
22 | COc1ccc(/C=N/Nc2nc3ccccc3[nH]2)c(OC)c1OC | inconclusive: 10 µM [inhibitor, partial curve, poor fit]

Part of the list above in a different format.

| Row | SMILES | Potency |
| --- | --- | --- |
| 16 | O=[N+]([O-])c1cccc(/C=N/NS(=O)(=O)c2ccccc2)c1 | inconclusive: 11.2 µM [inhibitor, partial curve, poor fit] |
| 17 | COc1cc2c(cc1NC(=O)C1CCCO1)oc1ccccc12 (centres undefined) | inactive |
| 18 | Cc1ccccc1C(=O)NC(=S)Nc1ccc(S(=O)(=O)N(C)c2ccccc2)cc1 | inconclusive: 10 µM [inhibitor, partial curve] |
| 19 | Cc1ccc2cc(CN(C(=O)c3ccncc3)C(C)C)c(=O)[nH]c2c1 | inactive |

(next part)

Row | SMILES | Potency
23 | CC1CCN(C(=S)NC(=O)c2ccco2)CC1 | inconclusive: 35.5 µM [activator, single point]
24 | Fc1ccc(C2CCNCC2COc2ccc3c(c2)OCO3)cc1 (centres undefined) | inconclusive: 35.5 µM [inhibitor, single point]
25 | Cc1cccc(NC(=O)C(=O)NCC(c2ccc3c(c2)OCO3)N2CCN(C)CC2)c1C (centres undefined) | inconclusive: 6.31 µM [inhibitor, single point]
26 | COC(=O)CCN(c1ccccc1)S(=O)(=O)c1cc(-c2cc(C)no2)ccc1OC | inconclusive: 20 µM [inhibitor, partial curve, poor fit] and inconclusive: 35.5 µM [inhibitor, partial curve, poor fit]
27 | O=Cc1cn(-c2ccc(F)cc2)c2ccccc12 | inconclusive: 1.84 µM [inhibitor, partial curve, poor fit]
28 | CSc1cccc(-n2c(C)cc(C(N)=O)c2C)c1 | inconclusive: 5.17 µM [inhibitor, partial curve, poor fit]
29 | O=C(Cn1cc(C(F)(F)F)ccc1=O)Nc1ccc2c(c1)OCCO2 | inconclusive: 0.447 µM [activator, partial curve, poor fit]
30 | CCS(=O)(=O)Nc1ccc(C2=NN(S(C)(=O)=O)C(c3cccs3)C2)cc1 (centres undefined) | inconclusive: 5.62 µM [activator, single point]
31 | CC(=O)N1c2ccc(S(=O)(=O)N3CCCC(C(=O)Nc4cccc(Cl)c4)C3)cc2CC1C (centres undefined) | inconclusive: 0.562 µM [inhibitor, full curve, poor fit]
32 | Nc1nc(-c2ccc(NC(=O)c3ccco3)cc2)cs1 | inconclusive: 2.24 µM [inhibitor, full curve, poor fit]
33 | CCCC(c1nnnn1Cc1ccc(F)cc1)N1CCN(C2CCCCC2)CC1 (centres undefined) | inactive
34 | COc1ccc(CNC(=O)c2cccc3c2C(=O)N(Cc2cccnc2)C3)cc1 | inconclusive: 35.5 µM [inhibitor, single point]
35 | COc1ccc(/C=C/C(=O)Nc2ccccc2C(=O)O)cc1 | inconclusive: 0.794 µM [inhibitor, full curve, poor fit]
36 | CCOc1ccccc1NC(=O)CCn1nc(C)c(S(=O)(=O)N2CCCCC2)c1C | inactive
37 | CC1Cc2ccccc2N1Cc1cccc(S(=O)(=O)N(C)C)c1 (centres undefined) | inconclusive: 7.94 µM [inhibitor, partial curve, poor fit]
38 | C=C(C)C(=O)N1CCN(C(=O)C(=C)C)c2ccccc21 | inactive
39 | O=C(NCCCc1ccccc1)C1CCN(C(=O)N2CCOc3ccc(Cl)cc32)CC1 | inconclusive: 0.891 µM [inhibitor, full curve, poor fit]
40 | Cc1cc(NC(=O)COC(=O)c2cc([N+](=O)[O-])ccc2N2CCOCC2)ccc1Br | inconclusive: 10 µM [inhibitor, partial curve, poor fit]
41 | CCn1c(/C=C2\C(=O)N(C)c3ccccc32)nc2ccccc2c1=O | inconclusive: 6.31 µM [inhibitor, single point]
42 | COc1ccc(CCNC(=O)C(=O)NCC(c2ccco2)S(=O)(=O)c2ccc(F)cc2)cc1 (centres undefined) | inconclusive: 31.6 µM [inhibitor, single point]
43 | O=C(Cc1ncc(C(F)(F)F)cc1Cl)N1CCN(c2ccccn2)CC1 | inactive
44 | CC(=O)N1CCSc2ccc(S(=O)(=O)Nc3ccccc3C)cc21 | inconclusive: 10 µM [inhibitor, partial curve, poor fit]

Row | SMILES | Potency
45 | COc1cccc(-c2csc(NC3OC(=O)c4c3ccc(OC)c4OC)n2)c1 (centres undefined) | inconclusive: 35.5 µM [activator, single point]
46 | COc1cccc(CNC(=O)CCCn2nc(C)c3c(C)n(-c4ccccc4)nc3c2=O)c1 | inconclusive: 2.24 µM [inhibitor, partial curve, poor fit]
47 | Fc1cccc(-c2cc3nc(-c4ccccc4)cc(N4CCC5(CC4)OCCO5)n3n2)c1 | inconclusive: 1.26 µM [activator, single point]
48 | CCn1nnnc1SCC(=O)N1CCc2ccccc21 | inconclusive: 35.5 µM [activator, single point]
49 | COc1ccc(CN2C(=O)CC(C(=O)NCCc3ccc(S(N)(=O)=O)cc3)SC2=Nc2ccccc2)cc1 (centres undefined) | inconclusive: 25.9 µM [inhibitor, single point]
50 | CCc1nc(NCc2ccc3c(c2)OCO3)c2oc3ccccc3c2n1 | inconclusive: 29.1 µM [inhibitor, single point]
51 | Cc1nc2ncnn2c(C)c1CCC(=O)NCc1ccccc1Cl | inactive
52 | O=C1c2ccccc2C(Nc2cccc(C(F)(F)F)c2)N1Cc1ccco1 (centres undefined) | inconclusive: 25.1 µM [inhibitor, single point]
53 | CCOc1ccccc1N(CC(=O)N1CCc2ccccc2C1)S(=O)(=O)c1ccccc1 | inconclusive: 35.5 µM [inhibitor, single point]
54 | O=C(CCl)N1N=C(c2ccco2)CC1c1ccco1 (centres undefined) | inconclusive: 35.5 µM [inhibitor, single point]
55 | O=S(=O)(Nc1cccc(-c2ccc(N3CCCCCC3)nn2)c1)c1cccc(F)c1 | inactive
56 | CCN(CC)c1ccc(NC(=O)c2cccc(C)c2OC)c(C)c1 | inactive
57 | CC(=O)N1/C(=C/c2ccc(N(C)C)cc2)C(=O)c2ccccc21 | inconclusive: 8.91 µM [inhibitor, partial curve, poor fit]
58 | CCCCOC(=O)CSC1=C(C#N)C(c2cccnc2)C(C(=O)OCC)=C(c2ccccc2)N1 (centres undefined) | inconclusive: 0.891 µM [inhibitor, full curve, poor fit]
59 | O=C1CCSC2(C(=O)N(Cc3ccc(F)cc3)c3ccccc32)N1c1ccc(F)c(F)c1 (centres undefined) | inactive
60 | CC1CCN(c2ccc(-c3ccc(NC(=O)c4ccco4)cc3)nn2)CC1 | inactive
61 | O=C(COC(=O)c1ccccc1Cl)NC(=O)NCc1ccccc1 | active: 8.2 µM
62 | CC(=O)Nc1cc(-c2ccc(Cl)cc2)nn1-c1ccccc1 | inactive
63 | COc1ccc(N2C3=C(C(=O)CC(C)(C)C3)C(c3ccccc3OC)C3=C2CC(C)(C)CC3=O)cc1 | inactive
64 | Cc1ccc(Cn2cccc(NC(=O)c3ccco3)c2=O)cc1 | inconclusive: 25.9 µM [activator, single point]
